40 targets from the supplement of paper PMC10849652 can be followed below.

Amino acid sequences for entries named in this document (tags omitted). A change or cut given only in a name is not applied to a line headed by its entry.
UniProt P56945: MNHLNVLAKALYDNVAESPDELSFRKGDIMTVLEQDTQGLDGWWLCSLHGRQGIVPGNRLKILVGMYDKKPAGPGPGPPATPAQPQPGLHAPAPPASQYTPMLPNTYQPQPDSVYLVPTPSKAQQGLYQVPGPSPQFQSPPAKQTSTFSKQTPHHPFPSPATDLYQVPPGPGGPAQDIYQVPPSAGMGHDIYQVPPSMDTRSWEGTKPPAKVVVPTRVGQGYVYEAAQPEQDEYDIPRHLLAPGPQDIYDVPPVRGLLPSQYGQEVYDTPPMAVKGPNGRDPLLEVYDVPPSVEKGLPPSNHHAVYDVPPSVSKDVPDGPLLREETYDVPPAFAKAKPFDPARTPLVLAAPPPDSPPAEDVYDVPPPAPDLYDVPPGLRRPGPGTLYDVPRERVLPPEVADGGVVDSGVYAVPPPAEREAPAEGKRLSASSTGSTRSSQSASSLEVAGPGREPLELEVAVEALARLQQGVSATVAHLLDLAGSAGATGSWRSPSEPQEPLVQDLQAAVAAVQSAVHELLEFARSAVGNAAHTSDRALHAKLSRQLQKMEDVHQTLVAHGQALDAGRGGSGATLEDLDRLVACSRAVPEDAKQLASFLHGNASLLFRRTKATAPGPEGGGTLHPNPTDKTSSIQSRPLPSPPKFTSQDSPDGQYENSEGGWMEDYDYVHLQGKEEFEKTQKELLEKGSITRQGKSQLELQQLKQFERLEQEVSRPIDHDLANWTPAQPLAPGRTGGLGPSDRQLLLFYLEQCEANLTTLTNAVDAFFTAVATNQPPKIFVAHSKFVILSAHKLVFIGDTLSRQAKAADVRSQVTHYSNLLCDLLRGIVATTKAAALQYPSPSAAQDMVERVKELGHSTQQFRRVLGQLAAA
UniProt Q7Z569: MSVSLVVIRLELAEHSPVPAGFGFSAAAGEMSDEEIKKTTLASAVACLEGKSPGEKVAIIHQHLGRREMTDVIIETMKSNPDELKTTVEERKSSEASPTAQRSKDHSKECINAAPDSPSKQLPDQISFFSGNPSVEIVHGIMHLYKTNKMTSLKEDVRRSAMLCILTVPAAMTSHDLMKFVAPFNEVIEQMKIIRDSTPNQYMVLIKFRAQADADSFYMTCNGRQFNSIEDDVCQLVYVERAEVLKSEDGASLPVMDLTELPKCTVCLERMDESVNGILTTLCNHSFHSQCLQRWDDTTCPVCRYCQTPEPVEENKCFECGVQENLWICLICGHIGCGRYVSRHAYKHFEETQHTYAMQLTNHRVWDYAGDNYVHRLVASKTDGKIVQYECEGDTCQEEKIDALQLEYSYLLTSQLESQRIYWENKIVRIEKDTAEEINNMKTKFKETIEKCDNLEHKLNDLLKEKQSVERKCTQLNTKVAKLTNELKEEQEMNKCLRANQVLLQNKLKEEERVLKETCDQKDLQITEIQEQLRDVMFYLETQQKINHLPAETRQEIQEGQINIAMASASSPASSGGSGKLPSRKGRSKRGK
UniProt Q92843: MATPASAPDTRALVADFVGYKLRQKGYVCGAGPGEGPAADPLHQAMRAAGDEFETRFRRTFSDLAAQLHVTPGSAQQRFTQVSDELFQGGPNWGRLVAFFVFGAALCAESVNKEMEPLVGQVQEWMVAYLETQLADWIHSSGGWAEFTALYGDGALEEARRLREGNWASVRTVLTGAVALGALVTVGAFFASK
UniProt O14867: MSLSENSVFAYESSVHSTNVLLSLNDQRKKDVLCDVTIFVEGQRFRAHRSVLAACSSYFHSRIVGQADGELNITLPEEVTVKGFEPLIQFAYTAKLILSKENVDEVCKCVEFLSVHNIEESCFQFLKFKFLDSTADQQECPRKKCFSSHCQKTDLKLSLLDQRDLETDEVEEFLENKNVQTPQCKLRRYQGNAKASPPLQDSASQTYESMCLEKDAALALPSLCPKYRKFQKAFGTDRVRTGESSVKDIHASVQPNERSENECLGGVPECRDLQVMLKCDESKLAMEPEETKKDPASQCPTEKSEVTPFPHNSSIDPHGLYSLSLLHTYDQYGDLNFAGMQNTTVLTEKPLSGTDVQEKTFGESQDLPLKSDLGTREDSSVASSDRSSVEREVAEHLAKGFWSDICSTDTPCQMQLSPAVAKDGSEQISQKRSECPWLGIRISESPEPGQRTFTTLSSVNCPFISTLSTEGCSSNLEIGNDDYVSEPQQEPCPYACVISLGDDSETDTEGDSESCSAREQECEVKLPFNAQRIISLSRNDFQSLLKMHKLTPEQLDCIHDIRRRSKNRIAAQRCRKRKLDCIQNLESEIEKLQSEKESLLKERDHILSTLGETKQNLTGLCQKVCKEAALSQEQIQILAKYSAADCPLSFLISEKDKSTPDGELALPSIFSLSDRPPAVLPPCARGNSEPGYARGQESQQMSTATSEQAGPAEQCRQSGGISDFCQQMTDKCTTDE
UniProt Q9UHR4: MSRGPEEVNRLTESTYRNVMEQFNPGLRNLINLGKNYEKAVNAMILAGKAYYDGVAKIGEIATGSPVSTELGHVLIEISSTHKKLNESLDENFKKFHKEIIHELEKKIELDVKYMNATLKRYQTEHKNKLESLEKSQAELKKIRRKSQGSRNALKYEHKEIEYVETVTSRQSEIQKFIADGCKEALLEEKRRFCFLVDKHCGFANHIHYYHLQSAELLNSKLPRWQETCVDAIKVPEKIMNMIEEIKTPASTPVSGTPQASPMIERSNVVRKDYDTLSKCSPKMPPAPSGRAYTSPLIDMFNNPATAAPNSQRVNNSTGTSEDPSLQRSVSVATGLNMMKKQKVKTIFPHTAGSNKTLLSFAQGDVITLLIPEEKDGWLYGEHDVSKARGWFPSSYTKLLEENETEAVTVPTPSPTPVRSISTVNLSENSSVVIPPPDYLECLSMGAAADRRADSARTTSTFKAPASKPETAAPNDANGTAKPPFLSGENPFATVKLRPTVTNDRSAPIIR
UniProt Q9P287, whole entry, looked up: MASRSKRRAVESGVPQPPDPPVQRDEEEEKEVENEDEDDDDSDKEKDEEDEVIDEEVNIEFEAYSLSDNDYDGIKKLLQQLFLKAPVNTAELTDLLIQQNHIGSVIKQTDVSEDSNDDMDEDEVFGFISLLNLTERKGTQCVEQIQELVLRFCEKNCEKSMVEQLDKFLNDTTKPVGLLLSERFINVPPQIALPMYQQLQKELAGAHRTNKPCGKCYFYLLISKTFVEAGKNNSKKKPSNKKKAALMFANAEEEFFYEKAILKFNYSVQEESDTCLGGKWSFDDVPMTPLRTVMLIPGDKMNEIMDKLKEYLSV
UniProt Q8TDN6: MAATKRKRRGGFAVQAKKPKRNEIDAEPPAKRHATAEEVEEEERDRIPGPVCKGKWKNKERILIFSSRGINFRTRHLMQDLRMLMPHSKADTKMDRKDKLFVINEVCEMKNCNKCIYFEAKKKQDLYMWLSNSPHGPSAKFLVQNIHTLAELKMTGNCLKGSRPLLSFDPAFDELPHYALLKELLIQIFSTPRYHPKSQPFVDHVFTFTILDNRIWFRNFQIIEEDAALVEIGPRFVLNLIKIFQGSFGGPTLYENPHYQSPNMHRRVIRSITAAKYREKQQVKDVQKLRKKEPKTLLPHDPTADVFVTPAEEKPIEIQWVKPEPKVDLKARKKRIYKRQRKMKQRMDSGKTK
UniProt Q13490, whole entry, looked up: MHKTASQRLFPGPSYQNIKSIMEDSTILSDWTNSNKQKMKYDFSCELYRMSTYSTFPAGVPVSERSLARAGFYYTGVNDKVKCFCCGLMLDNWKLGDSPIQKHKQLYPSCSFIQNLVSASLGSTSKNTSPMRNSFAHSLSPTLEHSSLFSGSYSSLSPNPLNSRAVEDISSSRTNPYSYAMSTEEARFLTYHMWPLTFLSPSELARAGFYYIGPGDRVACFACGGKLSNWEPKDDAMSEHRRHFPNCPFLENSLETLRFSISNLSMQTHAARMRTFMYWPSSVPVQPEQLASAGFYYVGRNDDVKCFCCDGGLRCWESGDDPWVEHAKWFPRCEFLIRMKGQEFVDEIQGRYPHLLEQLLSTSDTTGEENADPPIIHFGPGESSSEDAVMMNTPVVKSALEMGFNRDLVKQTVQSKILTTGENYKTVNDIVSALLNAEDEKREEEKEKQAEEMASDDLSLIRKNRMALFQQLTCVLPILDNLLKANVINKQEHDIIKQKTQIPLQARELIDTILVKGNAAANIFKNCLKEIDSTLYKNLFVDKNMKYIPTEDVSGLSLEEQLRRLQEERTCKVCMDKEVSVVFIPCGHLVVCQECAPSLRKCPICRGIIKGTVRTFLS
UniProt Q67FW5: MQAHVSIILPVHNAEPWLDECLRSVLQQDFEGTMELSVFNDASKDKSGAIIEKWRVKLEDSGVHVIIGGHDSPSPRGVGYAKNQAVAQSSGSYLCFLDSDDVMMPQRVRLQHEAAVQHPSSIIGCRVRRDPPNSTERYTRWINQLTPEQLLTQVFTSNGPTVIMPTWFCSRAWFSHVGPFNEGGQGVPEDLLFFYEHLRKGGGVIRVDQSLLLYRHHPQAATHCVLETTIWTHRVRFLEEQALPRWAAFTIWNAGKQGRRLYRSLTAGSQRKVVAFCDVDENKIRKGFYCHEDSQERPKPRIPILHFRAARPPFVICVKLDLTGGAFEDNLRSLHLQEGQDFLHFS
UniProt O75934: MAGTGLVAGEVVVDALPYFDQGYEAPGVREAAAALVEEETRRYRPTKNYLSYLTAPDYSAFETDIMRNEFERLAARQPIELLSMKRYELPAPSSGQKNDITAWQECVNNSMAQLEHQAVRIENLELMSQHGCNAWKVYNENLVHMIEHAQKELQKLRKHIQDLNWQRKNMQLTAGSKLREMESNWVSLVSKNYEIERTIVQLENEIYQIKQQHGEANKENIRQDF
UniProt Q14137: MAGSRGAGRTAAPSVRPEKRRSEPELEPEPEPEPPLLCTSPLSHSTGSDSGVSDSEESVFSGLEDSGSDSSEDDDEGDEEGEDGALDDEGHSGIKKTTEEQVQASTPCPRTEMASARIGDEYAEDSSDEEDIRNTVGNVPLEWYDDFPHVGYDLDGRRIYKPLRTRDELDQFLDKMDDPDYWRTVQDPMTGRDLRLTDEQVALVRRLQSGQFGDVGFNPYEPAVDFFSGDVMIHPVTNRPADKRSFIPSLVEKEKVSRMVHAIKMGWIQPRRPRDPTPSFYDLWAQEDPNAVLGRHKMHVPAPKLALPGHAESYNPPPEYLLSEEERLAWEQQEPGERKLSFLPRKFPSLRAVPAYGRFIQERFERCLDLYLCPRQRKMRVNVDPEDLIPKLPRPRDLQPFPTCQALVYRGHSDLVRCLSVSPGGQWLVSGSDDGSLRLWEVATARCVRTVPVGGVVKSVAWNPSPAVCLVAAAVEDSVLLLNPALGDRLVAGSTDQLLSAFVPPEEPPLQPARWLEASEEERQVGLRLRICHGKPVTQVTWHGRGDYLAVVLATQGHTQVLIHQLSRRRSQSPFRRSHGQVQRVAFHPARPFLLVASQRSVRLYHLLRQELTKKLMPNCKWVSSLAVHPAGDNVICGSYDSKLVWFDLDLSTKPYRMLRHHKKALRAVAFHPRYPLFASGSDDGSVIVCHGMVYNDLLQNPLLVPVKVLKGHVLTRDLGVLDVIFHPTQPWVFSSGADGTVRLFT
UniProt Q9UHQ4: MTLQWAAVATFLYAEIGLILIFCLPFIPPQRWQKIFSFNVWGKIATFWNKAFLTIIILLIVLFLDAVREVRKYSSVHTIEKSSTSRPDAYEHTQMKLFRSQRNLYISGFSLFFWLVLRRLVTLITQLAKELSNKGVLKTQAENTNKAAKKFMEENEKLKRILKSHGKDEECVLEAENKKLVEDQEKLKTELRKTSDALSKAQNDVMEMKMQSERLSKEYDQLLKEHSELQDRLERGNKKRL
UniProt Q6PJG6: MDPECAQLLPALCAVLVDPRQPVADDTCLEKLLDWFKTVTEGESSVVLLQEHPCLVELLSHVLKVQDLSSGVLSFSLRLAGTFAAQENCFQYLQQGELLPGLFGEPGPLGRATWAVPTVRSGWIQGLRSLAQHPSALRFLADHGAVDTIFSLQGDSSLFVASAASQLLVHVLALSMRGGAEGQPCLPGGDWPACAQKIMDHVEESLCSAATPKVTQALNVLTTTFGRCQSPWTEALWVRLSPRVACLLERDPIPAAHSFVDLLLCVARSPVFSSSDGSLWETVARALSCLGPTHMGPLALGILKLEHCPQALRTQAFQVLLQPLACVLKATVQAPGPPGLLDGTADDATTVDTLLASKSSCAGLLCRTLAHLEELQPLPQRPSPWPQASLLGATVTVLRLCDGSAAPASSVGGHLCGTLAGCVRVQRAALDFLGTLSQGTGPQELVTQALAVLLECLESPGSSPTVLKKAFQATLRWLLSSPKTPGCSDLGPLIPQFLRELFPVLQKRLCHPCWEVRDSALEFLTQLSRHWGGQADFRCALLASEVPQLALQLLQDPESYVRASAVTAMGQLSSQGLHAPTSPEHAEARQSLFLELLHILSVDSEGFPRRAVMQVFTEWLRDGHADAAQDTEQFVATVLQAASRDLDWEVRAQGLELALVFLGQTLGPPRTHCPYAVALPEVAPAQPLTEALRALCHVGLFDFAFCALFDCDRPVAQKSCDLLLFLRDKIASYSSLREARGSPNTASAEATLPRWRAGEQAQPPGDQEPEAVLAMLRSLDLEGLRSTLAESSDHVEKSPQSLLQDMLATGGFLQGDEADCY

Some of the results follow.

Compound in the first assay: C1=CC(=C(C=C1Cl)C2=NC3=NC=CN=C3C(=N2)NC4=CC=NC=C4)F
The experiment in a line: log2 fold change, soluble protein after heating vs DMSO (PISA); higher = thermal stabilisation; K562 cells, 10 uM, 30 min; active = over 0.2 and 3.5 SD of the protein, either way, in both replicates (recomputed). An outline of the steps: (§1)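 Quantification of soluble protein used TMTpro 16plex LC-MS/MS, with channel sums equalised. Samples were the supernatant after 21,000xg for 90 min of pooled aliquots from K562 cells (2×10^6 cells/mL) treated with 10 μM compound for 30 min, heated for 3 min over 48°C-58°C, and extracted in PBS with 0.5% NP-40 at 4°C. Values, from duplicates, describe thermal stability against control samples on a log2 fold-change scale.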
In the case of ATXN2 (UniProt Q99700), the log2 fold change is inactive: -0.055.

Consider BCAR1 isoform 6 (UniProt P56945), for which the log2 fold change was inactive: 0.037.

Turning to BPGM (UniProt P07738), the log2 fold change was inactive: 0.033.

Regarding BRAP (UniProt Q7Z569), the log2 fold change is inactive: 0.022.

As to BAX isoform 2 (UniProt Q07812), the log2 fold change is inactive: 0.017.

On to BPHL (UniProt Q86WA6), for which the log2 fold change is inactive: 0.057.

For BCL2L2 isoform 2 (UniProt Q92843), the log2 fold change is inactive: -0.131.

In the case of BACH1 (UniProt O14867), the log2 fold change is inactive: -0.057.

Regarding BAIAP2L1 (UniProt Q9UHR4), the log2 fold change was inactive: 0.02.

As to BCCIP (UniProt Q9P287), the log2 fold change was inactive: 0.019.

Turning to BLOC1S4 (UniProt Q9NUP1), the log2 fold change was inactive: 0.026.

Take BICD2 isoform 2 (UniProt Q8TD16): the log2 fold change is inactive: 0.048.

As for BAG6 isoform 3 (UniProt P46379), the log2 fold change is inactive: 0.034.

In the case of BRIX1 (UniProt Q8TDN6), the log2 fold change was inactive: -0.415.

Turning to AUP1 (UniProt Q9Y679), the log2 fold change is inactive: 0.068.

As for B4GALT1 (UniProt P15291), the log2 fold change was inactive: -0.018.

Regarding BIRC2 (UniProt Q13490), the log2 fold change is inactive: 0.004.

Turning to ATXN7L3B (UniProt Q96GX2), the log2 fold change was inactive: 0.061.

Regarding ATXN2L (UniProt Q8WWM7), the log2 fold change is inactive: -0.035.

Consider BORCS5 (UniProt Q969J3), for which the log2 fold change was inactive: 0.014.

Consider B3GAT3 (UniProt O94766), for which the log2 fold change was inactive: 0.008.

As to BNIP2 (UniProt J3KN59), the log2 fold change is inactive: 0.04.

In the case of B3GNTL1 (UniProt Q67FW5), the log2 fold change is inactive: -0.077.

For the target BCAS2 (UniProt O75934), the log2 fold change was inactive: -0.005.

For the target BLOC1S6 (UniProt Q9UL45), the log2 fold change was inactive: 0.047.

Regarding BLVRA (UniProt P53004), the log2 fold change was inactive: 0.055.

BOP1 (UniProt Q14137): the log2 fold change is inactive: -0.144.

As to BCS1L (UniProt Q9Y276), the log2 fold change was inactive: 0.014.

With BRCC3 (UniProt P46736), the log2 fold change was inactive: -0.011.

On to BCCIP isoform 2 (UniProt Q9P287), for which the log2 fold change is inactive: 0.027.

Take BOD1L1 (UniProt Q8NFC6): the log2 fold change is inactive: -0.115.

With B3GNT2 (UniProt Q9NY97), the log2 fold change is inactive: 0.

Take B4GALT3 (UniProt O60512): the log2 fold change was inactive: -0.109.

For the target AVL9 (UniProt Q8NBF6), the log2 fold change was inactive: 0.085.

Turning to BAP1 (UniProt Q92560), the log2 fold change was inactive: -0.142.

For the target BLOC1S2 (UniProt Q6QNY1), the log2 fold change was inactive: 0.045.

Regarding BCAP29 isoform 2 (UniProt Q9UHQ4), the log2 fold change is inactive: 0.077.

On to BRAT1 (UniProt Q6PJG6), for which the log2 fold change was inactive: 0.007.

For the target BORCS6 (UniProt Q96GS4), the log2 fold change was inactive: 0.068.

For AURKA (UniProt O14965), the log2 fold change is inactive: -0.055.

Compound in another assay: C1=CC(=CC=C1C2=NC3=C(N2)C=C(C=C3)C(=O)N)OC4=CC=C(C=C4)Cl
Described as above. The gist of the method:
as §1
Turning to ATXN2 (UniProt Q99700), the log2 fold change was inactive: 0.026.

Consider BCAR1 isoform 6 (UniProt P56945), for which the log2 fold change is inactive: 0.045.

BPGM (UniProt P07738): the log2 fold change was inactive: 0.006.

Turning to BRAP (UniProt Q7Z569), the log2 fold change was inactive: 0.012.

Regarding BAX isoform 2 (UniProt Q07812), the log2 fold change was inactive: -0.005.

Regarding BPHL (UniProt Q86WA6), the log2 fold change is inactive: -0.016.

With BCL2L2 isoform 2 (UniProt Q92843), the log2 fold change was inactive: -0.033.

In the case of BACH1 (UniProt O14867), the log2 fold change was inactive: 0.01.

Take BAIAP2L1 (UniProt Q9UHR4): the log2 fold change was inactive: 0.051.

With BCCIP (UniProt Q9P287), the log2 fold change was inactive: -0.027.

As to BLOC1S4 (UniProt Q9NUP1), the log2 fold change was inactive: 0.013.

Turning to BICD2 isoform 2 (UniProt Q8TD16), the log2 fold change is inactive: -0.007.

On to BAG6 isoform 3 (UniProt P46379), for which the log2 fold change was inactive: -0.036.

For BRIX1 (UniProt Q8TDN6), the log2 fold change is inactive: -0.089.

For AUP1 (UniProt Q9Y679), the log2 fold change is inactive: 0.049.

Consider B4GALT1 (UniProt P15291), for which the log2 fold change was inactive: 0.047.

As for BIRC2 (UniProt Q13490), the log2 fold change is inactive: 0.009.

For the target ATXN7L3B (UniProt Q96GX2), the log2 fold change was inactive: -0.033.

As to ATXN2L (UniProt Q8WWM7), the log2 fold change is inactive: 0.021.

For BORCS5 (UniProt Q969J3), the log2 fold change is inactive: 0.044.

Take B3GAT3 (UniProt O94766): the log2 fold change was inactive: -0.003.

BNIP2 (UniProt J3KN59): the log2 fold change is inactive: 0.072.

As for B3GNTL1 (UniProt Q67FW5), the log2 fold change was inactive: -0.021.

On to BCAS2 (UniProt O75934), for which the log2 fold change is inactive: 0.062.

As to BLOC1S6 (UniProt Q9UL45), the log2 fold change was inactive: 0.099.

Consider BLVRA (UniProt P53004), for which the log2 fold change was inactive: 0.037.

In the case of BOP1 (UniProt Q14137), the log2 fold change is inactive: 0.

Consider BCS1L (UniProt Q9Y276), for which the log2 fold change was inactive: 0.028.

On to BRCC3 (UniProt P46736), for which the log2 fold change is inactive: -0.005.

In the case of BCCIP isoform 2 (UniProt Q9P287), the log2 fold change is inactive: 0.026.

Consider BOD1L1 (UniProt Q8NFC6), for which the log2 fold change was inactive: -0.005.

With B3GNT2 (UniProt Q9NY97), the log2 fold change was inactive: 0.057.

In the case of B4GALT3 (UniProt O60512), the log2 fold change is inactive: 0.069.

As to AVL9 (UniProt Q8NBF6), the log2 fold change was inactive: 0.035.

BAP1 (UniProt Q92560): the log2 fold change is inactive: -0.048.

As to BLOC1S2 (UniProt Q6QNY1), the log2 fold change was inactive: 0.001.

On to BCAP29 isoform 2 (UniProt Q9UHQ4), for which the log2 fold change was inactive: 0.062.

In the case of BRAT1 (UniProt Q6PJG6), the log2 fold change is inactive: 0.015.

Consider BORCS6 (UniProt Q96GS4), for which the log2 fold change was inactive: 0.008.

As to AURKA (UniProt O14965), the log2 fold change is inactive: -0.061.
